Results reported in article PMC11180186.
Results are given in words; binding and its absence hold for the method and conditions named. Binding seen in cells or lysates may run through a third protein. Some binding calls cover weakened binding; strength is not graded here.

The chains behind the UniProt entries cited, without tags or fusion partners.
UniProt P26599: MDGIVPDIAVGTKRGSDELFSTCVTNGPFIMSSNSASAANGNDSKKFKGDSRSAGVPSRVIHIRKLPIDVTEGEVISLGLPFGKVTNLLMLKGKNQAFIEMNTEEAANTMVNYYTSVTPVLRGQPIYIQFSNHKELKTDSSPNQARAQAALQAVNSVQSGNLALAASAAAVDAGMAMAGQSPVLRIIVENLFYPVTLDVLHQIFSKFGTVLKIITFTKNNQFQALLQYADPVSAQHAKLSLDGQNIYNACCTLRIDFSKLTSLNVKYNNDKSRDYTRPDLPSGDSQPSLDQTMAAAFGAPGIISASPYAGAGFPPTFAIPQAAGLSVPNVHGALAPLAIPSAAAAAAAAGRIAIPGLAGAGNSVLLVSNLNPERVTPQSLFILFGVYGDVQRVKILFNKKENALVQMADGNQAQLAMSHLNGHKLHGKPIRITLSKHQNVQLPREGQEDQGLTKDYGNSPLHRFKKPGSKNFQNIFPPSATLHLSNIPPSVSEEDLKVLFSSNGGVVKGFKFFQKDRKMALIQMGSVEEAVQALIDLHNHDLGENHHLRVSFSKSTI

Biological target: methyl-CpG binding protein 2 (MECP2), human, endogenous in ReNcell CX cells (human (endogenous in ReNcell CX)) (UniProt P51608)
Assay: co-IP; co-IP from nuclear extracts of human ReNcell CX cells, control or treated with folic acid or 5AZA; western blot, quantified with ImageJ

polypyrimidine tract-binding protein PTBP1, human, endogenous in ReNcell CX cells (from UniProt P26599 1-557)
binding: binds
